These results are taken from US20200157537.

The chains behind the UniProt entries cited, without tags or fusion partners.
UniProt Q8VDS3, whole entry: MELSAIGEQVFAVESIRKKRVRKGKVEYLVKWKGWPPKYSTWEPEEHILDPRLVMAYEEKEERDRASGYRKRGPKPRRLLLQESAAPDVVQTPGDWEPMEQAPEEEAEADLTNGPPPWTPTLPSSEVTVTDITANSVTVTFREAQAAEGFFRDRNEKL

This series concerns the target CBX7 (Mus musculus) (UniProt Q8VDS3). Nature of the series: EMSA. As to conditions: purified recombinant protein.

The comparison behind a weaker result is the experiment's own reference, which may not be listed here. For at least one entry, the source does not settle the construct or the ends of the probe.

Take “GGCCACTTTGACTCGTGTAGACTCCTTCCTGCTTCTCTCACTAGGGCTTAGACTTCTTGGAACTGTAGGGTGTGAACCCAGAGAC [Dusp9 probe + gene-specific LNA mixmers]”: the binding result (supershift, binding enhanced relative to RNA alone, 8 uM LNA in binding mix, not with control LNA, label: radiolabelled RNA, variant of Dusp9 3'UTR EMSA probe) is “binds”.
On to GGGAGGUAUAUGUGGACAUAGAG [Larp1-FAM1-WT], for which the binding result (label: radiolabelled) is reported as “binds”.
Turning to “GGGAGGUAUAUUCCACCAUAGAG [Larp1-FAM1-Mut]”, the binding result (label: radiolabelled, variant of Larp1-FAM1-WT) was “binds more weakly”.
For “GGGUGUGCGGACCCUCCUCAGAAA [Nucks1-FAM3-Mut]”, the binding result (label: radiolabelled, variant of Nucks1-FAM3-WT) is “binds more weakly”.
In the case of “GGGUGUGCGGACGGAGGUCAGAAA [Nucks1-FAM3-WT]”, where the note is “label: radiolabelled”, the binding result is “binds”.
Regarding “GTAGCTTTTAGGAACTGTCAGCATGTTGTTGTTGAAGTGTGGAGCTGTAACTCTGCGTGGACTGTGGACAGTCAACAATATGTACTTAAAAGTTGCACTATTGCAA [Calm2 probe + gene-specific LNA mixmers]”, the binding result (supershift, binding enhanced relative to RNA alone, 8 uM LNA in binding mix, not with control LNA, label: radiolabelled RNA, variant of Calm2 3'UTR EMSA probe) is “binds”.
On to “TCAAATAGAGGAGCTGGGGATTAAAAAGATAGGTCTGATTAAAGGACTGTGCAGTTCAGATAAATAGAGATAATGGGATGCCGTGCGGATAGATTGGTTTTCTCC [Dcaf12l1 probe + gene-specific LNA mixmers]”, for which, under “supershift, binding enhanced relative to RNA alone, 8 uM LNA in binding mix, not with control LNA, label: radiolabelled RNA, variant of Dcaf12l1 3'UTR EMSA probe”, the binding result is reported as “binds”.
